According to paper PMC3762332:
Construct, isoform or probe ends are uncertain for at least one entry. For some assays here: Where a protein sequence is shown, tags need not be part of it.

Protein sequences, listed by entry. Tags and fused reporters are not part of them. Lines headed by an entry give the natural chain unless they say otherwise; changes in a name come on top.
UniProt O00716: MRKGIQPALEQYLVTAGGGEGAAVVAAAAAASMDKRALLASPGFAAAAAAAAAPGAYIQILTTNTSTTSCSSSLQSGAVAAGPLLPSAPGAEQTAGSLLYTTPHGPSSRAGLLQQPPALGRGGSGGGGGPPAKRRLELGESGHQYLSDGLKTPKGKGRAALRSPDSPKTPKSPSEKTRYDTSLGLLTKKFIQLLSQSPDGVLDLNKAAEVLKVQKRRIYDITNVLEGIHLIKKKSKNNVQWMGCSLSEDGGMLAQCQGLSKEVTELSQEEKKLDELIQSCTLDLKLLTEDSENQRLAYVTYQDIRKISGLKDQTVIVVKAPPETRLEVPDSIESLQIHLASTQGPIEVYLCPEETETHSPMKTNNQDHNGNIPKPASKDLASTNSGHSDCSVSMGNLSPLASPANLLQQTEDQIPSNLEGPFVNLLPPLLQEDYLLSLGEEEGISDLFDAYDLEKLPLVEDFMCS
UniProt P23771: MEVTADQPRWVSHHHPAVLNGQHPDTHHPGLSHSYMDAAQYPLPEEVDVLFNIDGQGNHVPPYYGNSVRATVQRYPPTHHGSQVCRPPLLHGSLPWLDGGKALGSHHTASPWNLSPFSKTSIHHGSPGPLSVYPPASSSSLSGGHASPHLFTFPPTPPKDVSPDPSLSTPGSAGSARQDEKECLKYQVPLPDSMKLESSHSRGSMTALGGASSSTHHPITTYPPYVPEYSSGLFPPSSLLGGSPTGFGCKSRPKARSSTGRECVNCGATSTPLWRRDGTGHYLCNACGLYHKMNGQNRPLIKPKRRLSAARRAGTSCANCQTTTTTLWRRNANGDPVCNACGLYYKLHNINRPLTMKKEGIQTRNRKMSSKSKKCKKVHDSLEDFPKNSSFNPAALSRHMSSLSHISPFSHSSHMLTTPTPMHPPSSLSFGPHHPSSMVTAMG
UniProt P43694: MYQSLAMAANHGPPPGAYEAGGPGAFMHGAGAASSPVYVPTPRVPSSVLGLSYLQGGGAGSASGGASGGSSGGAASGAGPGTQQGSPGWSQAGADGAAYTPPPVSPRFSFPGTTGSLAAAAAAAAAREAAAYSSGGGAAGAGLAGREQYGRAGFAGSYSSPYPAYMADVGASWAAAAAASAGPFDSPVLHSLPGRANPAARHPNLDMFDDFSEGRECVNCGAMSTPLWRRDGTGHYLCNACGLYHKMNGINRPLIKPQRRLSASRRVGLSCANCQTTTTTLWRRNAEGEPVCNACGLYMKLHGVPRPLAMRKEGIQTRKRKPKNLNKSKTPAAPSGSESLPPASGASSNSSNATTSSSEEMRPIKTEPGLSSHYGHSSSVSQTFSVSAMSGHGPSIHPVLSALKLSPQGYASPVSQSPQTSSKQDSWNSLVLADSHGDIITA
UniProt P20719: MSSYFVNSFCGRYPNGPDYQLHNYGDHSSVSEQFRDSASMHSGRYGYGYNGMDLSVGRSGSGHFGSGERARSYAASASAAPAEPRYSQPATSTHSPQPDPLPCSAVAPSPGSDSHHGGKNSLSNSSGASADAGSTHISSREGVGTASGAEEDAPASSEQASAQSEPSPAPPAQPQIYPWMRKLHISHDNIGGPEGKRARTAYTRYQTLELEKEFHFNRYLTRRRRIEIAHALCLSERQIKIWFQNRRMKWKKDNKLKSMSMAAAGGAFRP
UniProt P37231: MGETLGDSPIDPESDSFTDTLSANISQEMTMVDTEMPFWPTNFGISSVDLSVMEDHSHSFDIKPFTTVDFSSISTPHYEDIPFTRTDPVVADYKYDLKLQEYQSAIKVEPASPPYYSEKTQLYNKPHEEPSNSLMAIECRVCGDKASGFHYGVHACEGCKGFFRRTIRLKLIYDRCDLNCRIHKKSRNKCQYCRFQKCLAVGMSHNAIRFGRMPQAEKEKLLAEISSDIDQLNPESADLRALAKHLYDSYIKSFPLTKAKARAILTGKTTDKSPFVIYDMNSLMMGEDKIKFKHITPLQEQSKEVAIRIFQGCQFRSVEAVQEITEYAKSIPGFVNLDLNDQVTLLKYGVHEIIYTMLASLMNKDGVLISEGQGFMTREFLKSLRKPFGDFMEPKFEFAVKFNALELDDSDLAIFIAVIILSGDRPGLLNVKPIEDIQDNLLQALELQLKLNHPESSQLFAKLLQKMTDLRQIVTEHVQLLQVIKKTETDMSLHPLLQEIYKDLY
UniProt Q8NC26: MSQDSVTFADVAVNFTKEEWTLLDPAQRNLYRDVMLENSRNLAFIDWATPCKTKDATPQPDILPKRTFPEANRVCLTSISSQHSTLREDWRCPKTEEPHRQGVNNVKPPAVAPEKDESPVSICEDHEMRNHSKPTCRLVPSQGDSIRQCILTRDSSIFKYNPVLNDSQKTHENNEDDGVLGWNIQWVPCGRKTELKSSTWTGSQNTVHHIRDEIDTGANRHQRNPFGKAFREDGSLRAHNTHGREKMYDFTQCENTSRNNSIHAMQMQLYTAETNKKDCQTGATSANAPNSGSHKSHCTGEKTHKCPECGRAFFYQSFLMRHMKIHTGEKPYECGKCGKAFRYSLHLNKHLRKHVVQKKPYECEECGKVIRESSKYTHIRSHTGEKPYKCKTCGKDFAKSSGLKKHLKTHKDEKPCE
UniProt Q9BWM5: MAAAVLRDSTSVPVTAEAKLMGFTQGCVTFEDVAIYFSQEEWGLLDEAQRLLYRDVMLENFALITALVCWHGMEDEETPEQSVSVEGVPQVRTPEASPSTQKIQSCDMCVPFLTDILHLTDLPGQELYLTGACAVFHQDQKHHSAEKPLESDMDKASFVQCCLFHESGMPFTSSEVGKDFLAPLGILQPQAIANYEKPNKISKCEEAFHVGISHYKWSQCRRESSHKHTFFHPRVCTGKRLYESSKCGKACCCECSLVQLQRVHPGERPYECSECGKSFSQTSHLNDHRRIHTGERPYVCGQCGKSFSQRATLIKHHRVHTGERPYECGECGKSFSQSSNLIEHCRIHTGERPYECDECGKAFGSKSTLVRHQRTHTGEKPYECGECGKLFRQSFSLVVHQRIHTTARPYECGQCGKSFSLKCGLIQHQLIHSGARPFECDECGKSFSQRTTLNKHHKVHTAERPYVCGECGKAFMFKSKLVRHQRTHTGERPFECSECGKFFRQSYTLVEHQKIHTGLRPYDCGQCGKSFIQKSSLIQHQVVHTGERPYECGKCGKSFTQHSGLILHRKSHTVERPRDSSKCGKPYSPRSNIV

How the values were obtained:
Assay in all cases: protein microarray
Conditions in all cases: 10-fold cold unmethylated competitor; 5mC at CpG (SssI, both strands); recombinant protein; protein details: GST (N-terminal); label: Cy5
[1] = target: E2F3 (Homo sapiens) (UniProt O00716)
[2] = target: GATA3 (Homo sapiens) (UniProt P23771)
[3] = target: GATA4 (Homo sapiens) (UniProt P43694)
[4] = target: HOXA5 (Homo sapiens) (UniProt P20719)
[5] = target: T1, NPAS2 (Homo sapiens) (UniProt Q99743)
T1 sequence (looked up, limits assumed): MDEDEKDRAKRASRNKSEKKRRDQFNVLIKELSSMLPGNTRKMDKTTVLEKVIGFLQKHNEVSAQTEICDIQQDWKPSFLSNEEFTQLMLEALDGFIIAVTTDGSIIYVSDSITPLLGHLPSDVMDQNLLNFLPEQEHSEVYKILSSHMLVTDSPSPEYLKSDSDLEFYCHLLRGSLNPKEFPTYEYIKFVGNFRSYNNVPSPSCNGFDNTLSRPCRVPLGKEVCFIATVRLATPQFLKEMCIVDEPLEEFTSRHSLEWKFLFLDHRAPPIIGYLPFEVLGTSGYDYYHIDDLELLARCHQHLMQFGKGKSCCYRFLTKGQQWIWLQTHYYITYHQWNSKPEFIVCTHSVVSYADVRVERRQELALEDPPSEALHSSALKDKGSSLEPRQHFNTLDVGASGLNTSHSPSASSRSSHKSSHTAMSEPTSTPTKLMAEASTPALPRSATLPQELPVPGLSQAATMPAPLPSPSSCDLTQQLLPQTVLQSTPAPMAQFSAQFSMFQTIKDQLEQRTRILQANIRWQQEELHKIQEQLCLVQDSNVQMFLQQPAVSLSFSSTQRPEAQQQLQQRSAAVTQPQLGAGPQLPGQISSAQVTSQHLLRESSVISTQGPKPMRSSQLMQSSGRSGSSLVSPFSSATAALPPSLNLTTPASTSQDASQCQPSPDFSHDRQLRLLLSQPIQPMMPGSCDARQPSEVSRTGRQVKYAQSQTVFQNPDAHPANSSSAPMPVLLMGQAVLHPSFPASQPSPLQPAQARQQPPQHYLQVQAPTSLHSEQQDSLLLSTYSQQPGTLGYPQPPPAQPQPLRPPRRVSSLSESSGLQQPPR

[6] = target: PPARG (Homo sapiens) (UniProt P37231)
[7] = target: T2, RNF138 (Homo sapiens) (UniProt Q8WVD3)
T2 sequence (looked up, limits assumed): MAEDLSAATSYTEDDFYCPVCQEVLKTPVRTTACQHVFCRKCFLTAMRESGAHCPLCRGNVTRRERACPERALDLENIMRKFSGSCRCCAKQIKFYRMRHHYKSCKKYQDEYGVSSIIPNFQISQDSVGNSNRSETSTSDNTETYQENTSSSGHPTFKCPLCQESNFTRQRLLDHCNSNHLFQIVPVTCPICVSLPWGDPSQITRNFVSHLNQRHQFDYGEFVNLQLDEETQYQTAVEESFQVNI

[8] = target: T3, SCAPER (Homo sapiens) (UniProt Q9BY12)
T3 sequence (looked up, limits assumed): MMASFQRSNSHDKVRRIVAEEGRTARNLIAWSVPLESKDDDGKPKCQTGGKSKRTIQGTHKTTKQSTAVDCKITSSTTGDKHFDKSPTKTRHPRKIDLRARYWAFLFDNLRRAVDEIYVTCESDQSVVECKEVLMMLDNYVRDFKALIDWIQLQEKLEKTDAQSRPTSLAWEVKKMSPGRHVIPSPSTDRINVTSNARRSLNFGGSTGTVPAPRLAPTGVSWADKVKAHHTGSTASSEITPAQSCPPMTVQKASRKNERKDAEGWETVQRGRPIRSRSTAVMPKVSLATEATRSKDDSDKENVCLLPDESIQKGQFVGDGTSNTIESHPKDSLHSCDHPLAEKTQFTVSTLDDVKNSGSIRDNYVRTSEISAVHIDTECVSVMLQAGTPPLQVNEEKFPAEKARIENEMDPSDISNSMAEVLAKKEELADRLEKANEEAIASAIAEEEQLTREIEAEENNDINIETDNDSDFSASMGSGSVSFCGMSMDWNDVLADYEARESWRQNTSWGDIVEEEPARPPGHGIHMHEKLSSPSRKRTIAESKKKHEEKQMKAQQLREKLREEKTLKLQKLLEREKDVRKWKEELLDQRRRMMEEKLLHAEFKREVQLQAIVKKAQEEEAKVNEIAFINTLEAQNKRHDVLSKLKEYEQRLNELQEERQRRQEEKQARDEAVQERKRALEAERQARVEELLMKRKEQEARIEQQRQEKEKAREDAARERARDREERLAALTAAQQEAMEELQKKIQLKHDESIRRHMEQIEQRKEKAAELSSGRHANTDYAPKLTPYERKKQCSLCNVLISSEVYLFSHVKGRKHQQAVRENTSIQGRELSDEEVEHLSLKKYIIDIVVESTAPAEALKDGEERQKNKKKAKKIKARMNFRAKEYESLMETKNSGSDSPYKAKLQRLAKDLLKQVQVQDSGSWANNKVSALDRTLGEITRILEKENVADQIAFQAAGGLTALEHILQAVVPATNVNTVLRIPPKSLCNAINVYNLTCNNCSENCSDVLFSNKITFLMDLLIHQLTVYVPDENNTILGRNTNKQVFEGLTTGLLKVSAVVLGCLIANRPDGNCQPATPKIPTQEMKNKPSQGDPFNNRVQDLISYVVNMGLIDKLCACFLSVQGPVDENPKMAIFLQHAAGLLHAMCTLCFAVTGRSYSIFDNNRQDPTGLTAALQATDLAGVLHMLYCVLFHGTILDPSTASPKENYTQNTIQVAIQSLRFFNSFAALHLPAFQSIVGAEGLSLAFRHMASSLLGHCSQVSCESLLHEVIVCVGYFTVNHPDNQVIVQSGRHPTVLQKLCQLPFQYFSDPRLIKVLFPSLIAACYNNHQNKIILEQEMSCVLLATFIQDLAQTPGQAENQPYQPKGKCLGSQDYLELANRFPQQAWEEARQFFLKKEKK

[9] = target: T4, ZCCHC7 (Homo sapiens) (UniProt Q8N3Z6)
T4 sequence (looked up, limits assumed): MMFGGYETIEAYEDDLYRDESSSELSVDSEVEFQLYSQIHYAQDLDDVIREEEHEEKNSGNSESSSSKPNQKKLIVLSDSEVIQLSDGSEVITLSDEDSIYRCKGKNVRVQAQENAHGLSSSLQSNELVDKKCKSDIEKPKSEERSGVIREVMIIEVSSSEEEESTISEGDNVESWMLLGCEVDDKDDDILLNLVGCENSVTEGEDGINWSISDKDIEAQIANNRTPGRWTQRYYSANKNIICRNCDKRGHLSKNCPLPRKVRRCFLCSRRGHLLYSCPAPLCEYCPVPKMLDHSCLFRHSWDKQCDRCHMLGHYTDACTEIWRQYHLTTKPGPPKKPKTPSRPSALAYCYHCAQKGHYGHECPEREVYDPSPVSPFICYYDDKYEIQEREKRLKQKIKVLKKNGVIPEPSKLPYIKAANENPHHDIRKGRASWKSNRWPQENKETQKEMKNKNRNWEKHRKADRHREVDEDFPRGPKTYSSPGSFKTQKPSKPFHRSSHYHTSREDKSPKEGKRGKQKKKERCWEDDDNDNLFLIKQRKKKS

[10] = target: ZNF114 (Homo sapiens) (UniProt Q8NC26)
[11] = target: ZNF416 (Homo sapiens) (UniProt Q9BWM5)

Measured: binding result

CCGGCTCAAACCGGCTCCCCTATAGTGAGTGCTATTA (double strand) [M99]
binds: [1] | [2] | [3] | [4] | [5] | [6] | [7] | [8] | [9] | [10] | [11]
